Laboratory results taken from paper PMC3359313.
Results are given in words; binding and its absence hold for the method and conditions named. In cells and extracts the contact can be indirect. Some binding calls cover weakened binding; strength is not graded here.

Protein sequences, listed by entry. Tags and fused reporters are not part of them. Lines headed by an entry give the natural chain unless they say otherwise; changes in a name come on top.
UniProt P61586: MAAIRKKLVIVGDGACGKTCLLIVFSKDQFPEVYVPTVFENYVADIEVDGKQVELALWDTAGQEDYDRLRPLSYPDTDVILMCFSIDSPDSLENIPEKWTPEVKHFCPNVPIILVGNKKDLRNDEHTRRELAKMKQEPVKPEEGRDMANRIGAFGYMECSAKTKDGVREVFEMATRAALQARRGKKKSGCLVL
UniProt P97433: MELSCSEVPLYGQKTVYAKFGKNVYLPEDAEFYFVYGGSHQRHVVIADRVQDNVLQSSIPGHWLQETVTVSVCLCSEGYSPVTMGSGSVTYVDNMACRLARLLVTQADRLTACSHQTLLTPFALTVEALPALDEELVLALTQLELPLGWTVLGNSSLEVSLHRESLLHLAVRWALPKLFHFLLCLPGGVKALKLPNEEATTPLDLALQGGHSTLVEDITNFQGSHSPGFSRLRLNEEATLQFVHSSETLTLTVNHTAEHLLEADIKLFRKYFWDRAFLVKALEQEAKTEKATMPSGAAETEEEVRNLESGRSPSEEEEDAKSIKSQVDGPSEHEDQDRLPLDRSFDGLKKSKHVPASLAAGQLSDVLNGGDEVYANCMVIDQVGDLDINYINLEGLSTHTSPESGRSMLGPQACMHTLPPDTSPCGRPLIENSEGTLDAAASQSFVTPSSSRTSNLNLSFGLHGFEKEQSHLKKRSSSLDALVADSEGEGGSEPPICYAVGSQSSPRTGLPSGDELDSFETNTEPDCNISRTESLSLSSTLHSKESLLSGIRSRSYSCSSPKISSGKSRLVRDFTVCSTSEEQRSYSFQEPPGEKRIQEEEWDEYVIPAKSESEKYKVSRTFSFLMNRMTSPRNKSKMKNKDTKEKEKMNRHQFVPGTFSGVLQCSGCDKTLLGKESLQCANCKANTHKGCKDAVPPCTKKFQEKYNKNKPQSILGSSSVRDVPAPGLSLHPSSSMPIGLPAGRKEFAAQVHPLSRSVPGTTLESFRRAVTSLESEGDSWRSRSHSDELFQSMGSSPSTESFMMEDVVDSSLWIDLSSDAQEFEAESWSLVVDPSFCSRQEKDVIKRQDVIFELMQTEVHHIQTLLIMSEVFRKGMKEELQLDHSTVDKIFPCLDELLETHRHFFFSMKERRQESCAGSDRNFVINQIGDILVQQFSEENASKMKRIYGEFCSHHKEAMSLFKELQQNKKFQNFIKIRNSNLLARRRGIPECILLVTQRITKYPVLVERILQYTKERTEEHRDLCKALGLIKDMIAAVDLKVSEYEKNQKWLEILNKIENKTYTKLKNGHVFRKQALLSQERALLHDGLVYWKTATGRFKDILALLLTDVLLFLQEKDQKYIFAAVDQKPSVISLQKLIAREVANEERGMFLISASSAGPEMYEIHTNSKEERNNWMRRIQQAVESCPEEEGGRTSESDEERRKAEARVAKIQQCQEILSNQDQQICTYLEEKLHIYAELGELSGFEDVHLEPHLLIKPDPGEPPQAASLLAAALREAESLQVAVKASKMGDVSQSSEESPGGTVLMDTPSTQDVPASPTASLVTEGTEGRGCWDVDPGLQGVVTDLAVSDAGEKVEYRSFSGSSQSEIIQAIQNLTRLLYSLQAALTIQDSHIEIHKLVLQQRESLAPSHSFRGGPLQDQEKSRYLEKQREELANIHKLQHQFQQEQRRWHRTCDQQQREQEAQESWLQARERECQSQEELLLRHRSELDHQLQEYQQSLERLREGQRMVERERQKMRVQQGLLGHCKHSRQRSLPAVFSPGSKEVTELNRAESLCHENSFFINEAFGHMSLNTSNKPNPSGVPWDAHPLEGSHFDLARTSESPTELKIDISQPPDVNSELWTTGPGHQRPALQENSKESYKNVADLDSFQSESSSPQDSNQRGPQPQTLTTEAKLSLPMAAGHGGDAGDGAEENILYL

Target: GST-RhoA (G17A) (UniProt P61586)
Experiment: pull-down; 20 ug GST-RhoA G17A bound to glutathione agarose, 60 min at 4 C, with lysates of normal MEFs held in suspension and then replated onto 10 ug/ml fibronectin for 30 to 120 min; bound Rgnef detected by immunoblotting; only the target purified

Question: For “Rgnef (p190RhoGEF) (from UniProt P97433 1-1700)”, which binding is on record?
Answer: Its binding is “binds”.
